Laboratory results as given in patent US10059697B2, “Compounds and combinations for the treatment of HIV” (priority 2015, dated 2018).
“And” between values parts separate entries of the source, which are not always exact repeats. Identical values can stand only once. Like-named read-outs stand apart in the source and are kept apart here. The name of at least one read-out is uncertain.

Tested on: HIV-1 expression in latently infected resting CD4 T cells from HIV-1 Infected Subjects on cART
Assay type: cell-based
Settings: individual subjects
Protocol: The leukapheresis product was diluted with PBS and layered over Ficoll for isolation of PBMCs. PBMCs were treated with red blood cell lysis buffer and rested overnight (10 million cells/ml) in tissue culture medium (RPMI 1640 supplemented with 10% FBS and Pen/Strep) before the isolation of resting (CD69-CD25-HLA-DR-) CD4 T cells according to the manufacturer's instructions (EasySep Human CD4 T cell Enrichment Kit modified to also deplete CD69+, CD25+, or HLA-DR+ cells). Resting CD4 T cells were cultured in four replicate wells per condition with the indicated compounds or with dimethyl sulfoxide (DMSO, vehicle control) for 6 days. To assess latency reversal that occurs in response to mitogenic activation of T cells, cells were incubated with 50 ng/ml phorbol 12-myristate 13-acetate (PMA) and 500 ng/ml ionomycin. Unless otherwise indicated, continuous exposure was used. Where pulses are indicated, at the end of the pulse, cells were spun three times at 500×g for 5 min, supernatant was decanted and replaced with an equal volume of fresh media. When in combination with another compound that was not pulsed, the compound with continuous exposure was added back at the indicated concentration. The cultures were maintained in the presence of antivirals (elvitegravir and efavirenz at 100 nM each) to prevent viral spread and amplification in order to measure the quantity of virions produced (latency reversal) by the indicated compounds. At the end of the incubation period, cell-free culture supernatants were harvested and HIV-1 RNA levels were quantified by the COBAS® AmpliPrep/COBAS® TaqMan HIV-1 Test, v2.0 (Roche). Romidepsin was used as a control. Romidepsin is a HDAC inhibitor with HIV latency reversal activity (PLoS pathogens (2015), 11(9), e1005142). The combination of a phorbol ester (PMA) and a calcium ionophore (ionomycin) was also used as a mitogenic control that has strong HIV latency reversal activity. As this combination induces global T cell proliferation and activation, systemic administration would likely induce significant toxicity. As such, PMA and ionomycin are useful strictly as a tool to monitor the amount of virus that can be produced in response to a strongly activating stimuli.

## N#Cc1ncn(CC(=O)Nc2ccc3c(c2)C(=O)c2ccccc2-3)n1 [Compound 3, 2-(3-cyano-1H-1,2,4-triazol-1-yl)-N-(9-oxo-9H-fluoren-2-yl)acetamide]
1 μM Compound 3, 6 days, Table 3
  Fold HIV Activation: 2.32 and 1.14
3 μM Compound 3, 6 days, Table 3
  Fold HIV Activation: 2.88 and 1.23 and 3.24 and 1.77 and 2.42 and 4.05 and 1.59 and 2.54
3 μM Compound 3, Table 9
  Fold HIV Activation: 1.23 and 3.24
3 μM Compound 3, Table 12
  Fold HIV Activation: 1.77 and 2.42 and 4.05
6 μM Compound 3, 6 days, Table 3
  Fold HIV Activation: 2.14 and 2.21

## C/C=C1\NC(=O)[C@H]2CSSCC/C=C/[C@H](CC(=O)N[C@H](C(C)C)C(=O)N2)OC(=O)[C@H](C(C)C)NC1=O [Romidepsin, reference compound]
40 nM Romidepsin, 4 h pulse, Table 1
  Fold HIV Activation: 3.43 and 0.77 and 1.58 and 2.35 and 4.15 and 2.51 and 5.60 and 16.3 and 5.26 and 1.62 and 1.25 and 2.18 and 1.12 and 0.88 and 23.1 and 14.2 and 3.09
40 nM Romidepsin, 4 h pulse, Table 2
  Fold HIV Activation: 3.43 and 0.77 and 1.58 and 2.35 and 4.15 and 5.60 and 14.2 and 3.09
40 nM Romidepsin, 4 h pulse, Table 3
  Fold HIV Activation: 3.43 and 0.77 and 1.58 and 2.35 and 4.15 and 5.60 and 14.2 and 3.09
40 nM Romidepsin, 4 h pulse, Table 4
  Fold HIV Activation: 1.12 and 0.88 and 23.1 and 2.18 and 1.38

## COC[C@H](NC(=O)c1cnc(C)s1)C(=O)N[C@@H](COC)C(=O)N[C@@H](Cc1ccccc1)C(=O)[C@@]1(C)CO1 [Oprozomib, oprozomib, reference compound]
100 nM Oprozomib, 1 hr pulse, Table 7
  Fold HIV Activation: 2.33 and 1.59 (2×) and 1.01 and 6.67 and 3.56 and 3.02

## COc1cc2c(cc1NC(=O)Cn1cnc(C#N)n1)oc1ccccc12 [Compound 2]
1 μM Compound 2, 6 days, Table 2
  Fold HIV Activation: 1.21 and 1.03
3 μM Compound 2, 6 days, Table 2
  Fold HIV Activation: 2.03 and 3.42 and 1.77 and 1.00 and 2.70 and 7.69 and 4.03 and 3.22
3 μM Compound 2, Table 8
  Fold HIV Activation: 1.77
3 μM Compound 2, Table 11
  Fold HIV Activation: 1.00 and 2.70 and 7.69
6 μM Compound 2, 6 days, Table 2
  Fold HIV Activation: 4.16 and 2.47

## CC(C)C[C@H](NC(=O)[C@H](CCc1ccccc1)NC(=O)CN1CCOCC1)C(=O)N[C@@H](Cc1ccccc1)C(=O)N[C@@H](CC(C)C)C(=O)[C@@]1(C)CO1 [Carfilzomib, carfilzomib, reference compound]
0.3 μM Carfilzomib, 15 min pulse, Table 6
  Fold HIV Activation: 2.97 and 0.63 and 0.91 and 0.64 and 1.00 (2×) and 1.44 and 0.89 and 1.05
0.3 μM Carfilzomib, 15 min pulse, Table 11
  Fold HIV Activation: 0.91 and 0.64 and 1.44
0.3 μM Carfilzomib, 15 min pulse, Table 12
  Fold HIV Activation: 0.91 and 0.64 and 1.44

## C#CCOc1cc2c(cc1NC(=O)Cn1cnc(C#N)n1)oc1ccccc12 [Compound 4, 2-(3-cyano-1H-1,2,4-triazol-1-yl)-N-(2-(prop-2-yn-1-yloxy)dibenzo[b,d]furan-3-yl)acetamide]
3 μM Compound 4, 6 days, Table 4
  Fold HIV Activation: 8.97 and 2.93 and 1.69
3 μM Compound 4, Table 10
  Fold HIV Activation: 2.93 and 1.69 and 8.97
6 μM Compound 4, 6 days, Table 4
  Fold HIV Activation: 4.55 and 3.96 and 4.53

## N#Cc1ncn(CC(=O)Nc2ccc3oc4ccccc4c3c2)n1 [Compound 1]
1 μM Compound 1, 6 days, Table 1
  Fold HIV Activation: 1.05 and 0.535 and 1.01 and 1.00 (2×) and 2.21 and 0.630 and 1.66
3 μM Compound 1, 6 days, Table 1
  Fold HIV Activation: 1.23 and 0.801 and 3.10 and 1.13 and 2.98 and 1.26 and 3.94 and 15.4 and 10.3 and 1.63 and 4.82 and 0.994 and 0.869 and 7.04 and 6.52 and 4.04 and 8.91
3 μM Compound 1, Table 5
  Fold HIV Activation: 1.09 and 0.80 and 3.10 and 15.4 and 1.63 and 4.82 and 30.4 and 0.97 and 1.40 and 6.52
3 μM Compound 1, Table 6
  Fold HIV Activation: 1.86 and 11.4 and 1.13 and 2.98 and 1.26 and 3.94 and 1.63 and 4.82 and 30.4
3 μM Compound 1, Table 7
  Fold HIV Activation: 0.80 and 3.10 and 1.86 and 11.4 and 15.4 and 10.3 and 30.4
